From US20130230899A1 come the findings set out here.

Chains of the proteins cited; added tags and fusions are not shown. Lines headed by an entry give the natural chain unless they say otherwise; changes in a name come on top.
UniProt P14207: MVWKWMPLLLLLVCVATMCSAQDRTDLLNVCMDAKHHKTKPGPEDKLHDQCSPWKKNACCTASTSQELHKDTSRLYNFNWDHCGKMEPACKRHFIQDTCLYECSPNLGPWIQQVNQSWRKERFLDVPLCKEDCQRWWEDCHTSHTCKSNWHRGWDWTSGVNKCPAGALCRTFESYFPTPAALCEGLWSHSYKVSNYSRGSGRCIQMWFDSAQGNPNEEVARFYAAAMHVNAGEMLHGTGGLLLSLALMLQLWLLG

Results are given in words; binding and its absence hold for the method and conditions named. Some entries that bind do so weakly or less than the wild type.

The assay addresses human folate receptor β (FRβ) (human) (UniProt P14207). The assay can be described thus: hybridoma clones screened by reactivity with FRβ-expressing cells (human FRβ on B300-19); flow cytometry named, result not given. In general terms: Flow cytometry measures light scatter and fluorescence of single cells or particles in a stream.

B1: anti-human FRβ mouse monoclonal antibody clone 36b (antibody, V domains shown)
VH: QVQLQQSGAELMKPGASLKISCKATGYTFSSYWIEWVKQRPGHGLQWIGEILPGSGSSNYNEKFKGKATFTADTSSNTAYMQLSSLTSEDSAVYYCARRGSSGSYFAMDYWGQGTSVTVSS
VL: DIQMTQSSSSFSVSLGDRVTITCKASEDIYNRLAWYQQKPGNAPRLLISGATSLETGVPLRFSGSGSGKDYTLSITSLQTEDIATYYCQQYWSTPWTFGGGTKLEIK
For B1, the binding entry is “binds”.
